# ± gives the standard deviation of the averaged measurements. The list shows a part of the results, in another mix than the full data. Small differences around the control level are noise.
# Molecular target: A0A0A0MT26|P13637 and related entries (UniProt P13637)
# Test: NP40-soluble protein abundance relative to vehicle (solubility fold change) (ratio); higher = more soluble protein in presence of AMP-PNP
# Procedure, shortened: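 Crude Jurkat lysate, prepared by Dounce homogenisation, was exposed to eight concentrations from 0.1 to 10 mM for 10 min at room temperature and then 3 min at 37 °C. Solubilisation used 0.8% NP40 with benzonase for 60 min at 4 °C, followed by ultracentrifugation and TMT labelling of the supernatant for LC-MS/MS. After vsn normalisation of intensities, each value is the fold change against the detergent-processed vehicle within each replicate, across three independent experiments.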
smiles,measurement,setting,value
Nc1ncnc2c1ncn2[C@@H]1O[C@H](COP(=O)(O)OP(=O)(O)NP(=O)(O)O)[C@@H](O)[C@H]1O [adenylyl imidodiphosphate],NP40-soluble protein abundance,concentration: 0.1mM,0.9926 ± 0.0077
same,NP40-soluble protein abundance,concentration: 0.5mM,1 ± 0.03
